# Reference: PubChem BioAssay AID2517 (National Center for Advancing Translational Sciences (NCATS), 2010)
# Chains of the proteins cited; added tags and fusions are not shown.
# UniProt P27695, whole entry, looked up: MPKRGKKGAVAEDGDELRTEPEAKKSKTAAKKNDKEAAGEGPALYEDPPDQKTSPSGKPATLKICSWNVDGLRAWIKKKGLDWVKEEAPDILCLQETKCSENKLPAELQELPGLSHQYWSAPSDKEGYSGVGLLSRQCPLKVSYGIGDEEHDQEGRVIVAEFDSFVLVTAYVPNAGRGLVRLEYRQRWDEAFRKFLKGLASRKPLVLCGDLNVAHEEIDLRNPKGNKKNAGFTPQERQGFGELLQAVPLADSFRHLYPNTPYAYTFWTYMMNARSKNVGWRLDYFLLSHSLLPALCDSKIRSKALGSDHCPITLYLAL
# Where “and” joins values, the source holds several entries; their conditions need not be identical. Equal entries are not always repeated. In all, about 350,000 compounds went through this assay and about 1,200 (0.34%) were called active. This list was built around the results that the source calls inconclusive (neither active nor inactive); the mix of calls is not that of the screen. The call rests on the fitted dose curve; in most records, active means well fitted inhibition curve with a large enough effect; inconclusive means small, poorly fitted or top-dose-only effect; inactive means no such curve, though single readings can be large or run the other way. A potency beside an inconclusive call is a rough fit, not a confirmed value.
# Target: DNA repair nuclease/redox regulator APEX1 (Homo sapiens) (UniProt P27695)
# Test: qHTS Assay for Inhibitors of the Human Apurinic/apyrimidinic Endonuclease 1 (APE1); further: nearly all actives have a fitted effect of over 55% in size;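 on activity change, negative = inhibition: plate controls were vehicle for no effect and reference inhibitor for full effect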
# Settings: recombinant APE1, TAMRA/BHQ-2 abasic DNA cleavage fluorescence; activity change, negative = inhibition: at 65.8 µM (top of the series)
# Summary of the method: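 Measures dequenching upon AP-site incision of a 5'-TAMRA/3'-BHQ-2 THF-containing duplex, 50 nM; human APE1 0.75 nM after 15 min room-temperature exposure to compound; kinetic three-point read at one-minute spacing.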
# Potency means the concentration at half of the fitted maximal effect.
Structure (SMILES),Potency,"activity change, negative = inhibition"
CCOc1ccc(C(=O)Nc2cc(-c3nc4ccccc4[nH]3)ccc2Cl)cc1[N+](=O)[O-],"inconclusive: 22.4 µM [inhibitor, single point]",–
CC[C@H](CC[C@@H](C)[C@H]1CC[C@H]2[C@@H]3CC=C4C[C@@H](O)CC[C@]4(C)[C@H]3CC[C@]12C)C(C)C,–,inactive: 4.56%
O=C(Nc1cccc(-c2nc3ccccc3[nH]2)c1)c1cccc(NC(=O)c2ccco2)c1,"inconclusive: 44.7 µM [inhibitor, single point]",–
Cc1c(NC(=O)COC(=O)C23CC4CC(CC(Br)(C4)C2)C3)c(=O)n(-c2ccccc2)n1C,"inconclusive: 31.6 µM [inhibitor, single point]",–
O=C(NC1CCC(O)CC1)c1cc(-c2ccco2)nc2ccccc12 (stereo unspecified),"inconclusive: 25.1 µM [inhibitor, partial curve]",–
Cc1c(C(O)CN2CCC(C(N)=O)CC2)c2ccccc2n1C (stereo unspecified),"inconclusive: 39.8 µM [inhibitor, single point]",–
COc1ccc(C(=O)CSc2nnc(-c3ccco3)c(-c3ccco3)n2)cc1,active: 17.8 µM,–
Cc1ccccc1NC(=O)c1ccc(S(=O)(=O)N2CCCC2)cc1,–,inactive: 27.2%
C[C@]12C=CC(=O)C=C1CCC1C3CC[C@](O)(C(=O)CO)[C@@]3(C)CC3OC312 (stereo partly specified),"inconclusive: 1 µM [inhibitor, full curve, poor fit]",–
O=C(CCc1ccc(O)c(O)c1)N/N=C/c1ccc2c(c1)OCO2,–,inactive: 1.75%
CC1(OC(=O)C2CCCC2)C(=O)C=C2C=C(c3ccsc3)N(CCc3ccccn3)C=C2C1=O (stereo unspecified),"inconclusive: 22.4 µM [inhibitor, single point]",–
O=C1C=CC(=O)C(C2=C3C(=O)N(CCc4ccccc4)CC(=O)N3CCC2)=C1,–,inactive: -4.75%
CCN(CC)c1ccc(/C=N/NC(=O)OC)c(O)c1,–,inactive: 1.29%
O=C(CSc1nc2ccccc2o1)N/N=C/c1ccc(O)c(O)c1,"inconclusive: 3.98 µM [inhibitor, full curve]",–
CCC(=O)Nc1cccc(NC(=S)NC(=O)c2ccc(C)cc2)c1,"inconclusive: 8.91 µM [inhibitor, single point]",–
Cn1ccc(=Nc2ccc(NC(=O)c3ccc(N=c4ccn(C)c5ccc([N+](=O)[O-])cc45)cc3)cc2)cc1,"inconclusive: 6.31 µM [inhibitor, single point]",–
COc1ccc(S(=O)(=O)N2CCC[C@H]2C(=O)NCc2ccc(Cl)cc2)cc1,"inconclusive: 0.0126 µM [inhibitor, full curve, poor fit]",–
CCOc1ccc(NS(=O)(=O)c2ccc3[nH]c(=O)[nH]c3c2)cc1,"inconclusive: 26.7 µM [inhibitor, single point]",–
O=C(/C=C/c1ccc(O)c(O)c1)O[C@@H]1C[C@@](O)(C(=O)O)C[C@H](O)[C@@H]1O,"inconclusive: 44.7 µM [inhibitor, partial curve, poor fit]",–
COc1ccccc1-c1nnc2n1N=C(c1c(OC)cccc1OC)CS2,–,inactive: 2.16%
COc1ccc(OC2C(=O)N(CCc3ccc(OC)c(OC)c3)C2c2ccc3c(c2)OCO3)cc1 (stereo unspecified),"inconclusive: 35.5 µM [inhibitor, single point]",–

# Ordered by molar mass (descending): some entries from above.
Structure (SMILES),Potency,"activity change, negative = inhibition"
CC1(OC(=O)C2CCCC2)C(=O)C=C2C=C(c3ccsc3)N(CCc3ccccn3)C=C2C1=O (stereo unspecified),"inconclusive: 22.4 µM [inhibitor, single point]",–
CC[C@H](CC[C@@H](C)[C@H]1CC[C@H]2[C@@H]3CC=C4C[C@@H](O)CC[C@]4(C)[C@H]3CC[C@]12C)C(C)C,–,inactive: 4.56%
COc1ccc(S(=O)(=O)N2CCC[C@H]2C(=O)NCc2ccc(Cl)cc2)cc1,"inconclusive: 0.0126 µM [inhibitor, full curve, poor fit]",–
COc1ccccc1-c1nnc2n1N=C(c1c(OC)cccc1OC)CS2,–,inactive: 2.16%
O=C1C=CC(=O)C(C2=C3C(=O)N(CCc4ccccc4)CC(=O)N3CCC2)=C1,–,inactive: -4.75%
CCC(=O)Nc1cccc(NC(=S)NC(=O)c2ccc(C)cc2)c1,"inconclusive: 8.91 µM [inhibitor, single point]",–
O=C(NC1CCC(O)CC1)c1cc(-c2ccco2)nc2ccccc12 (stereo unspecified),"inconclusive: 25.1 µM [inhibitor, partial curve]",–
CCOc1ccc(NS(=O)(=O)c2ccc3[nH]c(=O)[nH]c3c2)cc1,"inconclusive: 26.7 µM [inhibitor, single point]",–
O=C(CCc1ccc(O)c(O)c1)N/N=C/c1ccc2c(c1)OCO2,–,inactive: 1.75%
CCN(CC)c1ccc(/C=N/NC(=O)OC)c(O)c1,–,inactive: 1.29%

# (next part)

Structure (SMILES),Potency,"activity change, negative = inhibition"
O=c1c(O)c(-c2ccc(O[C@@H]3O[C@H](CO)[C@@H](O)[C@H](O)[C@H]3O)c(O)c2)oc2cc(O)cc(O)c12,"inconclusive: 20 µM [inhibitor, partial curve, poor fit]",–
COc1ccc(CNC(=O)CN(C(=O)CCC(=O)Nc2ccccn2)c2cc(C)ccc2C)cc1,"inconclusive: 21.2 µM [inhibitor, single point]",–
O=C(Nc1nc(-c2ccco2)c(-c2ccco2)s1)c1cnccn1,–,inactive: -28.4%
N#C/C(=C\c1ccc(O)c(O)c1)C(N)=O,"inconclusive: 31.6 µM [inhibitor, partial curve]",–
O=C(O)c1c2c(nc3ccc(S(=O)(=O)N4CCC(C(=O)NC5CCCCCC5)CC4)cc13)CCCC2,"inconclusive: 17.8 µM [inhibitor, partial curve]",–
CCCCC1OC23CCCCC2C(C#N)(C#N)C1(C#N)C(=N)O3 (stereo unspecified),–,inactive: -1.9%
COC(=O)c1cc2oc3ccccc3c2n1Cc1ccccn1,"inconclusive: 3.98 µM [inhibitor, full curve]",–
Clc1nc(Cl)nc(-c2cn(-c3ccccc3)c3ccccc23)n1,"inconclusive: 3.55 µM [inhibitor, single point]",–
COc1cc(NC(=O)C2=C(C)OCCS2)c(Cl)cc1C(=O)NCCN(C)C,–,inactive: 2.41%
NS(=O)(=O)c1ccc(NC(=S)NC(=O)c2ccc(Br)o2)cc1,–,inactive: 1.72%
Nc1cc([N+](=O)[O-])ccc1C(=O)O,"inconclusive: 35.5 µM [inhibitor, partial curve]",–
O=C(CCN1C(=O)c2ccccc2C1=O)Nc1ccncc1,"inconclusive: 44.7 µM [inhibitor, single point]",–
O=C(COC(=O)c1ccc(S(=O)(=O)NCc2ccco2)cc1)NCCC1=CCCCC1,"inconclusive: 20 µM [inhibitor, single point]",–
Nc1ccc(-c2nc3ccc(-c4nc5ccc(N)cc5[nH]4)cc3[nH]2)cc1,"inconclusive: 25.1 µM [inhibitor, partial curve] and inconclusive: 35.5 µM [inhibitor, single point] and inconclusive: 14.1 µM [inhibitor, partial curve]",–
COc1cc(/C=C2\SC(=O)N(CC(=O)Nc3ccc(C)cc3)C2=O)cc(Cl)c1OCC(=O)O,active: 5.32 µM,–
Cc1ccc(NC(=S)N(CCCN2CCOCC2)Cc2ccco2)cc1C,"inconclusive: 11.2 µM [inhibitor, partial curve]",–
COc1ccccc1OCC(=O)Nc1sc2c(c1C(N)=O)CCC2,–,inactive: -16.3%
COc1ccc(N/C=C\C(=O)c2ccc3c(c2)OCO3)cc1,–,inactive: 4.13%
OCCC1CN(Cc2nc(-c3ccc(F)cc3)cs2)CCN1CCc1ccccc1 (stereo unspecified),"inconclusive: 50.1 µM [inhibitor, partial curve, poor fit]",–
CC1=CC2=NC(=O)/C(=C/c3coc4ccccc4c3=O)C(=N)N2O1,"inconclusive: 3.55 µM [inhibitor, single point]",–
